Laboratory results from paper PMC8789783.
No constants are given. Whether binding was seen depends on the method and setting. In cells and extracts the contact can be indirect. Some results given as binding are weak or reduced against the parent protein; the word gives no strength.

Molecular target: T1, human wild-type FOXO1 (human), Q12778
T1 chain: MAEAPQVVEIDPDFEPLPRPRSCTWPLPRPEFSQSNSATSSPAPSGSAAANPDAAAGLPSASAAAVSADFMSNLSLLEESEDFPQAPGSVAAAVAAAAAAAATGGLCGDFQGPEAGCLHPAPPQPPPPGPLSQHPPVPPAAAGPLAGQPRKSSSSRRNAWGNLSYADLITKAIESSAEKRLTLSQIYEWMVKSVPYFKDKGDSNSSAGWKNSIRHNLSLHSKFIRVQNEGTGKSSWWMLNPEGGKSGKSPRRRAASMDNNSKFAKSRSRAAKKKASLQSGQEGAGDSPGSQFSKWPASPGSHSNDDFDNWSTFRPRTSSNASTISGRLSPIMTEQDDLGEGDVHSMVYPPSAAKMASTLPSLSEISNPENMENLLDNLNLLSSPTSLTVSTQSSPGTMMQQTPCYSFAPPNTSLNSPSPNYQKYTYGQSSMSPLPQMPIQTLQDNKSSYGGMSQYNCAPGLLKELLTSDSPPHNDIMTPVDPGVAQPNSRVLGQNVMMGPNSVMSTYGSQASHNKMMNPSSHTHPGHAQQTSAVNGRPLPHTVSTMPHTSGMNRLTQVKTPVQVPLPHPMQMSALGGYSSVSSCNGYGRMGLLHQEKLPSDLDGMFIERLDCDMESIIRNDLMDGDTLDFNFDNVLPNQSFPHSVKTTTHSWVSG
Assay: co-IP; HEK293T cells transfected with wild-type or mutated pCMV-FOXO1; lysed in RIPA buffer (50 mM Tris/HCl pH 7.4, 150 mM NaCl, 1 mM EDTA, 0.25% sodium deoxycholate, 1% NP-40); 3 mg of proteins precipitated overnight at 4 °C with anti-FOXO1 antibody, protein A/G beads; blot with anti-FOXO1 and anti-ATG7
Conditions: remark: other sources report otherwise

B1: ATG7, O95352 1-703 (protein)
chain: MAAATGDPGLSKLQFAPFSSALDVGFWHELTQKKLNEYRLDEAPKDIKGYYYNGDSAGLPARLTLEFSAFDMSAPTPARCCPAIGTLYNTNTLESFKTADKKLLLEQAANEIWESIKSGTALENPVLLNKFLLLTFADLKKYHFYYWFCYPALCLPESLPLIQGPVGLDQRFSLKQIEALECAYDNLCQTEGVTALPYFLIKYDENMVLVSLLKHYSDFFQGQRTKITIGVYDPCNLAQYPGWPLRNFLVLAAHRWSSSFQSVEVVCFRDRTMQGARDVAHSIIFEVKLPEMAFSPDCPKAVGWEKNQKGGMGPRMVNLSECMDPKRLAESSVDLNLKLMCWRLVPTLDLDKVVSVKCLLLGAGTLGCNVARTLMGWGVRHITFVDNAKISYSNPVRQPLYEFEDCLGGGKPKALAAADRLQKIFPGVNARGFNMSIPMPGHPVNFSSVTLEQARRDVEQLEQLIESHDVVFLLMDTRESRWLPAVIAASKRKLVINAALGFDTFVVMRHGLKKPKQQGAGDLCPNHPVASADLLGSSLFANIPGYKLGCYFCNDVVAPGDSTRDRTLDQQCTVSRPGLAVIAGALAVELMVSVLQHPEGGYAIASSSDDRMNEPPTSLGLVPHQIRGFLSRFDNVLPVSLAFDKCTACSSKVLDQYEREGFNFLAKVFNSSHSFLEDLTGLTLLHQETQAAEIWDMSDDETI
binding: binds
